Article doi:10.1101/2024.12.26.630380
Construct, isoform or probe ends are uncertain for at least one entry. No signal at the amounts used counts as a negative. At least one verdict was read from the data and is not stated in words by the source.

Protein sequences, listed by entry. Tags and fused reporters are not part of them. Lines headed by an entry give the natural chain unless they say otherwise; changes in a name come on top.
UniProt C3W947: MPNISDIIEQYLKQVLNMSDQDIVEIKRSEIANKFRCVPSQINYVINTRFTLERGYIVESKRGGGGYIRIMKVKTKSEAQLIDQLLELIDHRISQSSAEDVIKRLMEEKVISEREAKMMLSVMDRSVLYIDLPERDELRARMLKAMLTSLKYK

Molecular target: pCtsR (CtsR pre-phosphorylated by pMcsB) (UniProt C3W947)
Test: EMSA
Conditions: CtsR phosphorylated by pMcsB and ATP before DNA addition

## GATTAAGGTCAAATATAGTCAAAATA (double strand) [unlabeled cognate DNA (26bp DNA presumed)]
  binding result: no binding
